Reference: PubChem BioAssay AID504791 (Drosophila RNAi Screening Center, 2011)
In all, the deposit lists about 23,000 reagents; this is an unselected part of those that have a named target and a result. Of all reagents, 199 (0.86%) were called active. 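Plate-scaled ratios behind the calls are not deposited; printed light signals are raw; many rows marked increased or decreased are still called inactive.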 A plus sign joins genes that one reagent is predicted to hit. Not given: the direction of the score.

Test: 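Factors in Argonaute-based small RNA production and activity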 (primary screen)
System: Drosophila S2-derived reporter cells
Knock-down reagent: long dsRNA against Drosophila genes, about 150-250 ng dsRNA per well (siRNA assay); about 80-120 ng (miRNA assay)
Duration: about 5 days (siRNA assay); about 4 days (miRNA assay)
Challenge: copper sulfate induction of reporters: 25 µM (siRNA assay); 200 mM stated (miRNA assay), 1-2 days before reading
Measured: 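Per-well ratio of Renilla over firefly light, expressed relative to that plate's average ratio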
Hit rule: 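a well was a first-pass pick when its plate-scaled ratio rose above 1.5 (siRNA assay) or 1.6 (miRNA assay), or dropped below 0.6; a gene counted only if two separate dsRNAs agreed on retest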

no.	gene knocked down	DRSC id	stable siRNA reporter change	stable assay Renilla, run 1 (luminescence)	stable assay firefly, run 1 (luminescence)	activity call
1	Ir56a	DRSC05776		6010	4.10e5	inactive
2	Grl62a	DRSC07963	reporter ratio raised past the hit cutoff	5902	1.53e5	inactive
3	Sgt	DRSC02812		46366	2.27e6	inactive
4	CG8543	DRSC10990		6486	4.40e5	inactive
5	CG8543	DRSC22809		3216	3.13e5	inactive
6	CG5323	DRSC06929		5722	3.13e5	inactive
7	CG16959	DRSC10230		7107	2.46e5	inactive
8	CG8768	DRSC07259		7159	3.40e5	inactive
9	FER	DRSC12735		8050	5.83e5	inactive
10	FER	DRSC16673		6492	3.29e5	inactive
11	CG12643	DRSC17849		5211	5.01e5	inactive
12	Dgk	DRSC05064		4950	4.22e5	inactive
13	Dgk	DRSC05065		5343	4.47e5	inactive
14	Dgk	DRSC06171		6955	3.66e5	inactive
15	Dgk	DRSC06782		4351	3.05e5	inactive
16	Dgk	DRSC22236	reporter ratio raised past the hit cutoff	9481	3.32e5	inactive
17	CG13398	DRSC02268		7182	3.37e5	inactive
18	CG3294	DRSC00590		11930	5.64e5	inactive
19	Epac	DRSC04969		2959	3.18e5	inactive
20	Epac	DRSC04996		15656	2.00e6	inactive
21	Epac	DRSC04997		6720	4.12e5	inactive
22	Nup107	DRSC01999		10957	4.07e5	inactive
23	Indy-2 + CG33934	DRSC15685		10386	3.16e5	inactive
24	Indy-2 + CG33934	DRSC15686	reporter ratio lowered past the hit cutoff	7474	6.12e5	inactive
25	CG15528	DRSC15065		6414	4.75e5	inactive
26	CCKLR-17D1	DRSC20010		5324	4.75e5	inactive
27	CCKLR-17D1	DRSC20011		6367	5.44e5	inactive
28	CCKLR-17D1	DRSC20012		5778	4.94e5	inactive
29	Or85b	DRSC16765		8031	4.73e5	inactive
30	CG13564	DRSC04201		6387	4.31e5	inactive
31	eIF3d2	DRSC15651	reporter ratio lowered past the hit cutoff	4015	3.58e5	inactive
32	CG1307	DRSC12492		7655	4.04e5	inactive
33	lms	DRSC06387		5355	4.12e5	inactive
34	CG15625	DRSC00460		7351	3.69e5	inactive
35	g	DRSC20335		6946	5.70e5	inactive
36	Sin3A	DRSC07552		9719	5.97e5	inactive
37	CG42266	DRSC21577		11050	4.57e5	inactive
38	CG42266	DRSC21957		9447	5.43e5	inactive
39	Saf-B	DRSC16167		7642	3.03e5	inactive
40	CG34029	DRSC03909		6166	4.05e5	inactive
41	CG14645	DRSC12231		7087	3.74e5	inactive
42	Dh44-R1	DRSC07172		8029	5.92e5	inactive
43	CG12645	DRSC17851		5596	4.32e5	inactive
44	Syn	DRSC16876		6014	3.44e5	inactive
45	CG3526	DRSC17240		7510	2.82e5	inactive
46	CG3526	DRSC18636		6491	3.16e5	inactive
47	crm	DRSC18754		4055	3.41e5	inactive
48	ReepA	DRSC04572		12484	7.22e5	inactive
49	ReepA	DRSC22475		3011	3.30e5	inactive
50	Chpf	DRSC19491		5703	4.37e5	inactive
51	Chpf	DRSC19893		8554	4.34e5	inactive
52	CG7330	DRSC10813		7356	3.43e5	inactive
53	CG7330	DRSC10814		7951	4.55e5	inactive
54	mbf1	DRSC11365		9626	4.97e5	inactive
55	CysRS	DRSC05948		4599	4.44e5	inactive
56	CG42656	DRSC12472		5155	3.13e5	inactive
57	Hr51	DRSC06627		5314	2.72e5	inactive
58	Hr51	DRSC22829		3615	3.62e5	inactive

Laid out differently: entries from further up.
{"gene knocked down":"CCKLR-17D1","DRSC id":"DRSC20012","stable assay Renilla, run 1 (luminescence)":5778,"stable assay firefly, run 1 (luminescence)":4.94e5,"activity call":"inactive"}
{"gene knocked down":"Or85b","DRSC id":"DRSC16765","stable assay Renilla, run 1 (luminescence)":8031,"stable assay firefly, run 1 (luminescence)":4.73e5,"activity call":"inactive"}
{"gene knocked down":"CG13564","DRSC id":"DRSC04201","stable assay Renilla, run 1 (luminescence)":6387,"stable assay firefly, run 1 (luminescence)":4.31e5,"activity call":"inactive"}
{"gene knocked down":"eIF3d2","DRSC id":"DRSC15651","stable siRNA reporter change":"reporter ratio lowered past the hit cutoff","stable assay Renilla, run 1 (luminescence)":4015,"stable assay firefly, run 1 (luminescence)":3.58e5,"activity call":"inactive"}
{"gene knocked down":"CG1307","DRSC id":"DRSC12492","stable assay Renilla, run 1 (luminescence)":7655,"stable assay firefly, run 1 (luminescence)":4.04e5,"activity call":"inactive"}
{"gene knocked down":"lms","DRSC id":"DRSC06387","stable assay Renilla, run 1 (luminescence)":5355,"stable assay firefly, run 1 (luminescence)":4.12e5,"activity call":"inactive"}
{"gene knocked down":"CG15625","DRSC id":"DRSC00460","stable assay Renilla, run 1 (luminescence)":7351,"stable assay firefly, run 1 (luminescence)":3.69e5,"activity call":"inactive"}
